US10753934B2, “Kits suitable for use in electrochemiluminescence methods and methods of effecting a specific-binding non-wash assay” (Meso Scale Technologies, priority 2001, dated 2020)

Legend:
[1] = ECL activity of tertiary amines as coreactants, streptavidin-coated NPT plates (Table IIa)
[2] = ECL activity of tertiary amines as coreactants, streptavidin-coated PT plates (Table IIb)
[3] = NPT plates, 0.3 nM Bt-IgG* bound, washed
[4] = NPT plates, 10 nM IgG* in solution
[5] = NPT plates, 200 mM tertiary amine, 200 mM phosphate, 0.1% Triton X-100, pH 7.5
[6] = PT plates, 0.3 nM Bt-IgG* bound, washed
[7] = PT plates, 10 nM IgG* in solution
[8] = PT plates, 200 mM tertiary amine, 200 mM phosphate, 0.1% Triton X-100, pH 7.5

Row | SMILES | Bound/Background ([1]; NPT plates) | Bound/Free ([1]; NPT plates) | ECL Bound [1, 3] | ECL Free [1, 4] | ECL Background [1, 5] | Bound/Background ([2]; PT plates) | Bound/Free ([2]; PT plates) | ECL Bound [2, 6] | ECL Free [2, 7] | ECL Background [2, 8] | Bound/Background [1] | Bound/Free [1] | ECL Bound [1] | ECL Free [1] | ECL Background ([1]; pH 7.5) | Bound/Background [2] | Bound/Free [2] | ECL Bound [2] | ECL Free [2] | ECL Background ([2]; pH 7.5)
1 | OCC(CO)(CO)NCCCNC(CO)(CO)CO [1,3-Bis[tris(hydroxymethyl)methylamino]propane] | 245 | 12 | 61712 | 5207 | 252 | 14 | 12 | 2559 | 382 | 181 | – | – | – | – | – | – | – | – | – | –
2 | O=C(O)CN(CCCCCCN(CC(=O)O)CC(=O)O)CC(=O)O [1,6-diaminohexane-N,N,N′,N′-tetraacetic acid] | 62 | 14 | 29011 | 2522 | 471 | 20 | 10 | 7898 | 1160 | 389 | – | – | – | – | – | – | – | – | – | –
3 | CC(O)CN(C)C (stereo not drawn) [1-Dimethylamino-2-propanol] | 30 | 8 | 22446 | 3463 | 741 | 13 | 8 | 6903 | 1332 | 545 | – | – | – | – | – | – | – | – | – | –
4 | O=S(=O)(O)CC(O)CN1CCN(CCO)CC1 (stereo not drawn) [2-hydroxy-3-[4-(2-hydroxyethyl)piperazin-1-yl]propane-1-sulfonic acid] | 364 | 65 | 81888 | 1482 | 225 | 5 | 9 | 749 | 207 | 142 | – | – | – | – | – | – | – | – | – | –
5 | CN(C)CCCO [3-Dimethylamino-1-propanol] | 78 | 7 | 18403 | 2946 | 236 | 26 | 6 | 5414 | 1079 | 207 | – | – | – | – | – | – | – | – | – | –
6 | O=S(=O)(O)CCCN1CCN(CCO)CC1 [3-[4-(2-hydroxyethyl)piperazin-1-yl]propane-1-sulfonic acid] | 368 | 59 | 79148 | 1545 | 215 | 6 | 9 | 803 | 207 | 132 | – | – | – | – | – | – | – | – | – | –
7 | O=S(=O)(O)CCCN1CCOCC1 [(3-[N-Morphilino)-3-propanesulfonic acid] | 33 | 12 | 5857 | 658 | 177 | 14 | 42 | 4221 | 388 | 294 | – | – | – | – | – | – | – | – | – | –
8 | O=S(=O)(O)CCCN1CCCCCC1 [Homopiperidine-N-3-propanesulfonic acid] | 13 | 1 | 11683 | 13833 | 921 | 32 | 4 | 14130 | 4347 | 447 | – | – | – | – | – | – | – | – | – | –
9 | CCCN(CCC)CCCN(CCC)CCC [N,N,N′,N′-tetrapropylpropane-1,3,-diamine] | 139 | 17 | 36137 | 2397 | 260 | 40 | 12 | 9468 | 983 | 237 | – | – | – | – | – | – | – | – | – | –
10 | CCCN(CCC)CCCCS(=O)(=O)O [N,N-bis propyl-N-4-aminobutanesulfonic acid] | 88 | 4 | 49778 | 13795 | 564 | 67 | 5 | 16465 | 3685 | 247 | – | – | – | – | – | – | – | – | – | –
11 | O=S(=O)(O)CCN(CCO)CCO [N,N-bis(2-hydroxyethyl)-2-aminoethane sulfonic acid] | 35 | 49 | 2009 | 97 | 57 | 6 | 87 | 636 | 118 | 112 | – | – | – | – | – | – | – | – | – | –
12 | O=S(=O)(O)CCCCN(CCO)CCO [N,N-bis-(hydroxyethyl)-N-4-aminobutanesulfonic acid] | 19 | 6 | 27561 | 5541 | 1446 | 19 | 34 | 5560 | 452 | 297 | – | – | – | – | – | – | – | – | – | –
13 | O=S(=O)(O)CCN1CCN(CCO)CC1 [N-2-Hydroxypiperazine-N-2-ethanesulfonic acid] | 432 | 21 | 73897 | 3716 | 171 | 29 | 19 | 4233 | 363 | 148 | – | – | – | – | – | – | – | – | – | –
14 | O=S(=O)(O)CCNC(CO)(CO)CO [N-tris(hydroxymethyl)methyl-2-aminoethane sulfonic acid] | 57 | 30 | 16062 | 804 | 282 | 9 | 21 | 3050 | 455 | 324 | – | – | – | – | – | – | – | – | – | –
15 | O=S(=O)(O)CC(O)CN1CCN(CC(O)CS(=O)(=O)O)CC1 (stereo not drawn) [Piperazine-N,N′-bis(2-hydroxypropane)sulfonic acid] | 306 | 50 | 86494 | 1995 | 283 | 11 | 11 | 3842 | 657 | 338 | – | – | – | – | – | – | – | – | – | –
16 | COC(=O)CCN1CCN(CCC(=O)OC)CC1 [Piperazine-N,N′-bis-3-methylpropanoate] | – | – | – | – | – | – | – | – | – | – | 71 | 40 | 5377 | 210 | 76 | 10 | 15 | 1807 | 287 | 182
17 | O=S(=O)(O)CCCN1CCN(CCCS(=O)(=O)O)CC1 [Piperazine-N,N′-bis-3-propanesulfonic acid] | 134 | 45 | 12318 | 362 | 92 | 6 | 13 | 499 | 120 | 88 | – | – | – | – | – | – | – | – | – | –
18 | O=S(=O)(O)CCCCN1CCN(CCCCS(=O)(=O)O)CC1 [Piperazine-N,N′-bis-4-butanesulfonic acid] | 115 | 61 | 12490 | 311 | 109 | 7 | 16 | 750 | 152 | 111 | – | – | – | – | – | – | – | – | – | –
19 | COC(=O)CCN1CCN(CCO)CC1 [Piperazine-N-2-hydroxyethane-N′-3-methylpropanoate] | – | – | – | – | – | – | – | – | – | – | 96 | 58 | 12346 | 340 | 128 | 10 | 19 | 1624 | 234 | 155
20 | O=S(=O)(O)CCCN1CCCCC1 [Piperidine-N-3-propanesulfonic acid] | – | – | – | – | – | – | – | – | – | – | 19 | 7 | 16067 | 9417 | 861 | 16 | 3 | 6148 | 2234 | 376
21 | O=S(=O)(O)CCN1CCN(CCS(=O)(=O)O)CC1 [piperazine-N,N′-bis(2-ethanesulfonic acid)] | 254 | 67 | 41418 | 777 | 163 | 19 | 34 | 5560 | 452 | 297 | – | – | – | – | – | – | – | – | – | –
